Data as given in publication PMC10307791.
No constants are given. Whether binding was seen depends on the method and setting. Some entries that bind do so weakly or less than the wild type.

Biological target: native FtsZ (Myxococcus xanthus) (UniProt Q1D0T7)
Experiment: sedimentation assay (high-speed centrifugation); 10 µM protein, 50 mM Hepes/NaOH pH 7.2, 50 mM KCl, 10 mM MgCl2, 10 mM CaCl2, 1 mM β-mercaptoethanol, 5 mM GTP; 160,000 x g, 1 h, 25 °C; both purified

B1: native FtsZ (protein, UniProt Q1D0T7 1-405)
chain: MDQFDQNKQAAKIRVVGAGGAGCNAVNTMILSKLDRVDFIAANTDVQALAASKAPTRLQLGQTLTKGLGAGANPEMGREAALESRDQIAAVLEGADMVFVTAGMGGGTGTGAAPIIADIAKSLGCLTVGVVTKPFLFEGNKRRKQAEQGIVELKAAVDTLITIPNQRLLSLSNEPMPLLETFKRADEVLLNAVQGISDLIQYHGYINVDFADVKTIMSDKGIALMGTGNSTGDKRALIAMQQAIASPLLEDVTIDGATGLLINITGGRDMTLQEVNEALTLVHDAADSEAEIIFGSLIDENISDEVKITIIATGFVHRDAPKVRTVAPVVQVPLSRPAPSVLANAREEVASLVPTKGSGSRPLTVESAKSVSARTAVVKDAPLPLDEDQFDIPTFLRRQGQTELP
binding: binds
